PubChem BioAssay AID1259308, NCATS | 2017

Purpose: 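Genes whose loss raises luciferase production in HEK293 cells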 (primary screen)
System: human HEK293 embryonic kidney cells stably expressing firefly luciferase (HEK-CMV-Luc2-Hygro)
Reagents: single siRNA against human genes, 0.8 pmol siRNA per well
Time to read-out: 72 h
Measurement: 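Reporter luminescence and viable-cell signal on separate replicate plates, given as percent of non-targeting control and median/MAD z-scores, plus per-cell luciferase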
Direction: total luciferase, z-score: higher = more reporter protein produced
Active means: 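Active when the median/MAD z-score for overall luciferase is greater than 3; a gene was taken forward for validation with new siRNAs if at least two of its three siRNAs passed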
Calls: active = raised luciferase; inactive = no rise
This is one part, drawn at random, of about 59,000 reagents. About 1,510 of them (2.6%) count as active. 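Calls use total luciferase alone and ignore viability, so some active siRNAs may act by altering cell number.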 Unmarked entries are inactive. The numbers tell different reagents against one gene apart. Further read-outs or replicates are left out here.

| gene symbol | reagent | total luciferase, z-score |
| --- | --- | --- |
| INHBC (inhibin subunit beta C) | 1 | -0.63 |
| INHBC (inhibin subunit beta C) | 2 | -0.308 |
| INHBC (inhibin subunit beta C) | 3 | -1.03 |
| TM4SF5 (transmembrane 4 L six family member 5) | 1 | -0.742 |
| TM4SF5 (transmembrane 4 L six family member 5) | 2 | 0.486 |
| TM4SF5 (transmembrane 4 L six family member 5) | 3 | 2.39 |
| SLC25A16 | 1 | -0.418 |
| SLC25A16 | 2 | 1.99 |
| SLC25A16 | 3 | 0.103 |
| SMC4 (structural maintenance of chromosomes 4) | 1 | -0.567 |
| SMC4 (structural maintenance of chromosomes 4) | 2 | 0.454 |
| SMC4 (structural maintenance of chromosomes 4) | 3 | -0.406 |
| GNRH2 (gonadotropin releasing hormone 2) | 1 | 1.12 |
| GNRH2 (gonadotropin releasing hormone 2) | 2 | 0.547 |
| GNRH2 (gonadotropin releasing hormone 2) | 3 | 1.87 |
| G0S2 (G0/G1 switch 2) | 1 | -0.488 |
| G0S2 (G0/G1 switch 2) | 2 | 0.0587 |
| G0S2 (G0/G1 switch 2) | 3 | 1.91 |
| FANCE (FA complementation group E) | 1 | 0.837 |
| FANCE (FA complementation group E) | 2 | -0.311 |
| FANCE (FA complementation group E) | 3 | 0.127 |
| FRMPD1 (FERM and PDZ domain containing 1) | 1 | -0.349 |
| FRMPD1 (FERM and PDZ domain containing 1) | 2 | 1.05 |
| FRMPD1 (FERM and PDZ domain containing 1) | 3 | 1.23 |
| SSNA1 (SS nuclear autoantigen 1) | 1 | -0.06 |
| SSNA1 (SS nuclear autoantigen 1) | 2 | 1.16 |
| SSNA1 (SS nuclear autoantigen 1) | 3 | -0.457 |

The list goes on, starting with the last 8 of the part before.
| gene symbol | reagent | total luciferase, z-score |
| --- | --- | --- |
| FANCE (FA complementation group E) | 2 | -0.311 |
| FANCE (FA complementation group E) | 3 | 0.127 |
| FRMPD1 (FERM and PDZ domain containing 1) | 1 | -0.349 |
| FRMPD1 (FERM and PDZ domain containing 1) | 2 | 1.05 |
| FRMPD1 (FERM and PDZ domain containing 1) | 3 | 1.23 |
| SSNA1 (SS nuclear autoantigen 1) | 1 | -0.06 |
| SSNA1 (SS nuclear autoantigen 1) | 2 | 1.16 |
| SSNA1 (SS nuclear autoantigen 1) | 3 | -0.457 |
| STK35 (serine/threonine kinase 35) | 1 | -0.32 |
| STK35 (serine/threonine kinase 35) | 2 | 2.61 |
| STK35 (serine/threonine kinase 35) | 3 | 0.31 |
| ESPNL (espin like) | 1 | -0.454 |
| ESPNL (espin like) | 2 | -0.348 |
| ESPNL (espin like) | 3 | -0.623 |
| LIME1 (Lck interacting transmembrane adaptor 1) | 1 | 0.443 |
| LIME1 (Lck interacting transmembrane adaptor 1) | 2 | -0.488 |
| LIME1 (Lck interacting transmembrane adaptor 1) | 3 | -0.367 |
| KRR1 (KRR1 small subunit processome component) | 1 | 3.35 (active) |
| KRR1 (KRR1 small subunit processome component) | 2 | -0.626 |
| KRR1 (KRR1 small subunit processome component) | 3 | 0.224 |
| AGTPBP1 (ATP/GTP binding carboxypeptidase 1) | 1 | -0.727 |
| AGTPBP1 (ATP/GTP binding carboxypeptidase 1) | 2 | -0.115 |
| AGTPBP1 (ATP/GTP binding carboxypeptidase 1) | 3 | -0.53 |
| SLIRP-OT1 (SLIRP overlapping transcript 1) | 1 | -0.00374 |
| SLIRP-OT1 (SLIRP overlapping transcript 1) | 2 | 1.74 |
| SLIRP-OT1 (SLIRP overlapping transcript 1) | 3 | -0.258 |
| HSPA1L (heat shock protein family A (Hsp70) member 1 like) | 1 | 0.755 |
| HSPA1L (heat shock protein family A (Hsp70) member 1 like) | 2 | -1.36 |
| HSPA1L (heat shock protein family A (Hsp70) member 1 like) | 3 | 0.304 |
| LRTM2 (leucine rich repeat transmembrane protein 2) | 1 | -0.978 |
| LRTM2 (leucine rich repeat transmembrane protein 2) | 2 | -0.265 |
| LRTM2 (leucine rich repeat transmembrane protein 2) | 3 | 2.1 |
| P4HA3 (prolyl 4-hydroxylase subunit alpha 3) | 1 | -0.307 |
| P4HA3 (prolyl 4-hydroxylase subunit alpha 3) | 2 | -2.03 |
| P4HA3 (prolyl 4-hydroxylase subunit alpha 3) | 3 | -1.11 |
| BCAM (basal cell adhesion molecule (Lutheran blood group)) | 1 | 0.66 |
| BCAM (basal cell adhesion molecule (Lutheran blood group)) | 2 | -1.13 |
| BCAM (basal cell adhesion molecule (Lutheran blood group)) | 3 | 0.782 |
